The target in the assay is TurboID-tagged Rpl8 (both baits) (S. cerevisiae) (UniProt P17076). Description: proximity labelling; TurboID-fused bait expressed from a centromeric CUP1-promoter plasmid in S. cerevisiae YDK11-5A; 500 μM copper sulphate and 500 μM biotin for 1 h at 30°C; biotinylated proteins purified on streptavidin agarose and identified by LC-MS/MS; enrichment against the GFP-TurboID and NLS-GFP-TurboID type controls.

Protein sequences, listed by entry. Tags and fused reporters are not part of them. Lines headed by an entry give the natural chain unless they say otherwise; changes in a name come on top.
UniProt P17076: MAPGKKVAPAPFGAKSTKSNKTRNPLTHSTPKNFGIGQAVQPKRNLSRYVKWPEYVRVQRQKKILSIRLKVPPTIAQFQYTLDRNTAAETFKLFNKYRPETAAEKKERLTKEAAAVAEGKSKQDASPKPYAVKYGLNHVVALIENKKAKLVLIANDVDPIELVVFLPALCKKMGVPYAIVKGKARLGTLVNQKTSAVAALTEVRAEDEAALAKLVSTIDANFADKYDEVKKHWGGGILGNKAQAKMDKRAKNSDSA

These are yes or no findings as the source states them, for the method shown. Binding seen in cells or lysates may run through a third protein. These calls come from enrichment with a bait or labelling near it, and not all partners need be listed.

B1: Kap123 (endogenous) (protein, UniProt P40069 1-1113)
chain: MDQQFLSQLEQTLHAITSGVGLKEATKTLQTQFYTQPTTLPALIHILQNGSDDSLKQLAGVEARKLVSKHWNAIDESTRASIKTSLLQTAFSEPKENVRHSNARVIASIGTEELDGNKWPDLVPNLIQTASGEDVQTRQTAIFILFSLLEDFTSSLSGHIDDFLALFSQTINDPSSLEIRSLSAQALNHVSALIEEQETINPVQAQKFAASIPSVVNVLDAVIKADDTMNAKLIFNCLNDFLLLDSQLTGNFIVDLIKLSLQIAVNSEIDEDVRVFALQFIISSLSYRKSKVSQSKLGPEITVAALKVACEEIDVDDELNNEDETGENEENTPSSSAIRLLAFASSELPPSQVASVIVEHIPAMLQSANVFERRAILLAISVAVTGSPDYILSQFDKIIPATINGLKDTEPIVKLAALKCIHQLTTDLQDEVAKFHEEYLPLIIDIIDSAKNIVIYNYATVALDGLLEFIAYDAIAKYLDPLMNKLFYMLESNESSKLRCAVVSAIGSAAFAAGSAFIPYFKTSVHYLEKFIQNCSQIEGMSEDDIELRANTFENISTMARAVRSDAFAEFAEPLVNSAYEAIKTDSARLRESGYAFIANLAKVYGENFAPFLKTILPEIFKTLELDEYQFNFDGDAEDLAAFADSANEEELQNKFTVNTGISYEKEVASAALSELALGTKEHFLPYVEQSLKVLNEQVDESYGLRETALNTIWNVVKSVLLASKVEPESYPKGIPASSYVNADVLAVIQAARETSMGNLSDEFETSMVITVMEDFANMIKQFGAIIIMDNGDSSMLEALCMQVLSVLKGTHTCQTIDIEEDVPRDEELDASETEATLQDVALEVLVSLSQALAGDFAKVFDNFRPVVFGLFQSKSKNKRSSAVGAASELALGMKEQNPFVHEMLEALVIRLTSDKSLEVRGNAAYGVGLLCEYASMDISAVYEPVLKALYELLSAADQKALAAEDDEATREIIDRAYANASGCVARMALKNSALVPLEQTVPALLAHLPLNTGFEEYNPIFELIMKLYQENSPVITNETPRIIEIFSAVFTKENDRIKLEKESTLGREENMERLKQFQTEEMKHKVIELLKYLNTTYNGIVAQNPVLAAVIA
B1: the binding result is “binds”.

(Values after publication PMC13034042.)
